# Test results as given in the supplement of paper PMC10849652.
# By UniProt entry, the sequences of proteins in these tests, tags left out. Where a name states a change or a piece, a line headed by the entry shows the natural chain unless it says otherwise.
# UniProt Q2TAC2: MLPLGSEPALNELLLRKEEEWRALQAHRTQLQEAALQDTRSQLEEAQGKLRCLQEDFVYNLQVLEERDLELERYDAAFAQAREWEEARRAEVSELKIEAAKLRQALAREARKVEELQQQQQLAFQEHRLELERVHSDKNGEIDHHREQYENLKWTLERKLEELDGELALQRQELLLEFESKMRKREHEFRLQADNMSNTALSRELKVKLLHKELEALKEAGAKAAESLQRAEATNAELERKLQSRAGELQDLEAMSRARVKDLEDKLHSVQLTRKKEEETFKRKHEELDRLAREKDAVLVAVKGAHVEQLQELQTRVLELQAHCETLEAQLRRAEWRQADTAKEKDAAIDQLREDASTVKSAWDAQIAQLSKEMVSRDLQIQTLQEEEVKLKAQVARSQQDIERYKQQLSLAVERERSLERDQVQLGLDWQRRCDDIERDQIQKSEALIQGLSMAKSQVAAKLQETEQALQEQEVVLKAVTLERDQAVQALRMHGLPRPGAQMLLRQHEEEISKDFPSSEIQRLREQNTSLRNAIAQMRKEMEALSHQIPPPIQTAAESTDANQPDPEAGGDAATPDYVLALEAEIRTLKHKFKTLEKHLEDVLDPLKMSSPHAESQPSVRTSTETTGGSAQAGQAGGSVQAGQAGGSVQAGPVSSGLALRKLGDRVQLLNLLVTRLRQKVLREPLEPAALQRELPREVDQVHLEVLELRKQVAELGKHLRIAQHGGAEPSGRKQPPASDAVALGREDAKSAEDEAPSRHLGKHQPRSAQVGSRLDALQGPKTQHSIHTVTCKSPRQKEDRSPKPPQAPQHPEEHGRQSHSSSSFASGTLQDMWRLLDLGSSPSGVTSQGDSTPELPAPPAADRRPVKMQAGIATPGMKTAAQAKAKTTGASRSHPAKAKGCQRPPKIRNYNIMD
# UniProt Q16543: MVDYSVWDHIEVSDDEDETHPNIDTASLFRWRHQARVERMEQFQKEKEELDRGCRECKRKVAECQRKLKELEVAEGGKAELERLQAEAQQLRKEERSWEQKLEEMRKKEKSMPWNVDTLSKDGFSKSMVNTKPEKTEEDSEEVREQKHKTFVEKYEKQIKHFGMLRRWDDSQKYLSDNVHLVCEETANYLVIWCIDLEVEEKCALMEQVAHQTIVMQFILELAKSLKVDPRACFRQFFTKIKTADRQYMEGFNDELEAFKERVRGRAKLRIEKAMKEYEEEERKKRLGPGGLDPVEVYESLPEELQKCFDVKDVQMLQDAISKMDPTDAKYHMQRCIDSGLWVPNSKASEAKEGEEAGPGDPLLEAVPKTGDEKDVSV
# UniProt P20248, whole entry, looked up: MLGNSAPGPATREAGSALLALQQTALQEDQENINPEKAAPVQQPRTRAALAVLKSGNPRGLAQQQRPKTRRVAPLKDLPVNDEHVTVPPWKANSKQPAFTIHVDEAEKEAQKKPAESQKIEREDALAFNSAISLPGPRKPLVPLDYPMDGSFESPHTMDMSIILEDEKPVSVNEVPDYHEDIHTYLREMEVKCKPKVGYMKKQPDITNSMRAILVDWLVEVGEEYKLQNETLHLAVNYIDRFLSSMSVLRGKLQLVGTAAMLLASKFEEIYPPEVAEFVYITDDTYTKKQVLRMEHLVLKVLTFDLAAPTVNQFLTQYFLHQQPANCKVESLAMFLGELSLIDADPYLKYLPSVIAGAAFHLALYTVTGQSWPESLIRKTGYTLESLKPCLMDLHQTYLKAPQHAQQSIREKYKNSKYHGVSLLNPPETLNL
# UniProt Q8N4T8: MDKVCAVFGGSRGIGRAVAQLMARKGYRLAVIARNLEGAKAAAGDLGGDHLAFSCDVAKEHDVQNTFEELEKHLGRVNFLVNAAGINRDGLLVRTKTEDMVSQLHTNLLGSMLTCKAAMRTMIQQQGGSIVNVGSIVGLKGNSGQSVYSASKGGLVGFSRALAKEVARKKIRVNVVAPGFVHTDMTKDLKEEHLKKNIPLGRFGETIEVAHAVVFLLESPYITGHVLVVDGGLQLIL
# UniProt Q9P031: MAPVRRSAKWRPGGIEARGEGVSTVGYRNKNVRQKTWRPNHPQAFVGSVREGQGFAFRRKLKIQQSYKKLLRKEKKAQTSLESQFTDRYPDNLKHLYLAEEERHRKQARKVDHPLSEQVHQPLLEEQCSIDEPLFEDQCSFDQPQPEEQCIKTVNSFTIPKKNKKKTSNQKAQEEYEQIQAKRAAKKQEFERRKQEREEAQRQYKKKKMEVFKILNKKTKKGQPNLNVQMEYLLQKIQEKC
# UniProt Q8ND76: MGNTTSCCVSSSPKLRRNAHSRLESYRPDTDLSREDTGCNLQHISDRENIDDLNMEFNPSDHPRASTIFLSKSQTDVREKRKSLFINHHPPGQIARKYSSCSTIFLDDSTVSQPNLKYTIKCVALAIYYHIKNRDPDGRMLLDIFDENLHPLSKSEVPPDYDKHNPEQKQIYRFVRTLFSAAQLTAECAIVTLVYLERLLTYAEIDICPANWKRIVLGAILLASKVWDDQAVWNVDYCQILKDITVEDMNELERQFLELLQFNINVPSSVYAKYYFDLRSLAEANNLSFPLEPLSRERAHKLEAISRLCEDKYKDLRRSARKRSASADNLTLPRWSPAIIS
# UniProt O75909: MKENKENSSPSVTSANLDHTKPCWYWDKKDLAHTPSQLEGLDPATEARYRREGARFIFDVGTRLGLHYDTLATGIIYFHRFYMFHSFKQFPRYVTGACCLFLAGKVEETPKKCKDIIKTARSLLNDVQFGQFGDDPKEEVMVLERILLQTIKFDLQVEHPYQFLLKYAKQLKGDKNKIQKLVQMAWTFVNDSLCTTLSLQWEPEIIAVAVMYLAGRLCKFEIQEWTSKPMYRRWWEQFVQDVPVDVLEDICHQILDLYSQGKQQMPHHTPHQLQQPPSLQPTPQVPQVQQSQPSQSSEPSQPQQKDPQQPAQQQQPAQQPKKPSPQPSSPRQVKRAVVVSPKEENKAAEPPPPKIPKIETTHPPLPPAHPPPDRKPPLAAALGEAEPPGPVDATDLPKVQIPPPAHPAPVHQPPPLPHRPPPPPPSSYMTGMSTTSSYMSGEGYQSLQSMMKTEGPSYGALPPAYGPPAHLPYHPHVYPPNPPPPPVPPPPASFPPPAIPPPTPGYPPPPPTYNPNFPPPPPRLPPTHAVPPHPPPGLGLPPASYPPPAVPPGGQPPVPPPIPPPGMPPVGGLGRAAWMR
# UniProt Q13191, whole entry, looked up: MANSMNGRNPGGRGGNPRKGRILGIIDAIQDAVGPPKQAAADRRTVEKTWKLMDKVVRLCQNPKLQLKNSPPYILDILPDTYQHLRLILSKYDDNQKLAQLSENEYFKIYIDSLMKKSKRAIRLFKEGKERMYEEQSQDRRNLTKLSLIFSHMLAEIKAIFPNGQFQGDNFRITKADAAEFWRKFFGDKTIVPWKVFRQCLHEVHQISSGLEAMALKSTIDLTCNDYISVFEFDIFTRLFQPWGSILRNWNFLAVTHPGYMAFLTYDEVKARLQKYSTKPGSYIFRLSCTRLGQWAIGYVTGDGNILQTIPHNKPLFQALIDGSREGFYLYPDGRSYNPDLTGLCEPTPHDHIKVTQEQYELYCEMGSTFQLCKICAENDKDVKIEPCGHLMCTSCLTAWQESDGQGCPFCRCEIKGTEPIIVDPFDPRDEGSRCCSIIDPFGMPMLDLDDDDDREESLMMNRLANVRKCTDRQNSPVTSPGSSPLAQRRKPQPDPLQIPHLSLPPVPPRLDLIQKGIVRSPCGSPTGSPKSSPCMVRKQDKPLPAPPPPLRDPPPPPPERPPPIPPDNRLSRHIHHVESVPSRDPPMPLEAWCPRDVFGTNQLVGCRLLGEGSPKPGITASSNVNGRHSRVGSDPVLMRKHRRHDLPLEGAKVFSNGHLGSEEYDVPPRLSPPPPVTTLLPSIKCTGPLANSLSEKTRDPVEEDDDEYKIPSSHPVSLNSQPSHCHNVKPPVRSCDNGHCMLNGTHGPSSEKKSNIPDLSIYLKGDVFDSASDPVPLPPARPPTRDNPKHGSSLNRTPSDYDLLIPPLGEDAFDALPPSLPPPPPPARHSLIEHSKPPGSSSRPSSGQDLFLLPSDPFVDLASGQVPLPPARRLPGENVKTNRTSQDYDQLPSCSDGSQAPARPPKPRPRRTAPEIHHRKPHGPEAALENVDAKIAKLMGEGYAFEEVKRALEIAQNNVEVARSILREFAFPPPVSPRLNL
# UniProt P60033: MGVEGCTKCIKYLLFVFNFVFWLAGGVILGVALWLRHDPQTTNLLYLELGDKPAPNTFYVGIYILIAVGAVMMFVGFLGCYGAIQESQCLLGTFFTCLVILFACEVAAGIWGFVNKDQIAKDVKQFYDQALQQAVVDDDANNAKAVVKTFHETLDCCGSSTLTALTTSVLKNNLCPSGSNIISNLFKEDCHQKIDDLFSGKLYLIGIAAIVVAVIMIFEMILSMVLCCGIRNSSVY
# UniProt O60508: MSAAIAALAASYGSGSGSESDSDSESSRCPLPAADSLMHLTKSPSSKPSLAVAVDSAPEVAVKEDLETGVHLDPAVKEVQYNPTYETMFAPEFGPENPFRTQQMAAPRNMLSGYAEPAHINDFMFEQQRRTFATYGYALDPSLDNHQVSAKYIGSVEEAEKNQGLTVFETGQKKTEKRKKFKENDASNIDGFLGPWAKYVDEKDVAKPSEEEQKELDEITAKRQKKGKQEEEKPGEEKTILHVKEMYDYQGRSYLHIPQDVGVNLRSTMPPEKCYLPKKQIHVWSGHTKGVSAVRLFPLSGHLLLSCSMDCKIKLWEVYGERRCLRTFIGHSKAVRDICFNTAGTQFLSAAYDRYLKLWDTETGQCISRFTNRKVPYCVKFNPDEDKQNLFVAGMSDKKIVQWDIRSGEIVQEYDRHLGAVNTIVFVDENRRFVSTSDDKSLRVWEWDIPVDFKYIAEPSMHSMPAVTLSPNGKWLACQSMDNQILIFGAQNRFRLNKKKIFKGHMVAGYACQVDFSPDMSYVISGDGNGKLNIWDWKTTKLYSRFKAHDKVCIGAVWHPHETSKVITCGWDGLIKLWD
# UniProt Q75N03: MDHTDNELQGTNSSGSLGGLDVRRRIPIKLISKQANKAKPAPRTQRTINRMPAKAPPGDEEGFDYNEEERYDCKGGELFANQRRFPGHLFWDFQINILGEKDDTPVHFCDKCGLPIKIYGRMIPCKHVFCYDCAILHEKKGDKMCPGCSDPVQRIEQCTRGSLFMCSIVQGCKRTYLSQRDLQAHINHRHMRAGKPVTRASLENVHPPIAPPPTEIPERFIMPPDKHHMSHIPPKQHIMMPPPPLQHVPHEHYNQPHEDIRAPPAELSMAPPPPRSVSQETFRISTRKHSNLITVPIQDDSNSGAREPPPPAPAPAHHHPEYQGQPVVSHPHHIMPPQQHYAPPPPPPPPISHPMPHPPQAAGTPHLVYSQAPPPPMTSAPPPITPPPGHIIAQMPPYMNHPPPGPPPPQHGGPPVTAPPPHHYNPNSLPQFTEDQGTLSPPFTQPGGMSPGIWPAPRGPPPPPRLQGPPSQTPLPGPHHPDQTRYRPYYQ
# UniProt A6NKD9: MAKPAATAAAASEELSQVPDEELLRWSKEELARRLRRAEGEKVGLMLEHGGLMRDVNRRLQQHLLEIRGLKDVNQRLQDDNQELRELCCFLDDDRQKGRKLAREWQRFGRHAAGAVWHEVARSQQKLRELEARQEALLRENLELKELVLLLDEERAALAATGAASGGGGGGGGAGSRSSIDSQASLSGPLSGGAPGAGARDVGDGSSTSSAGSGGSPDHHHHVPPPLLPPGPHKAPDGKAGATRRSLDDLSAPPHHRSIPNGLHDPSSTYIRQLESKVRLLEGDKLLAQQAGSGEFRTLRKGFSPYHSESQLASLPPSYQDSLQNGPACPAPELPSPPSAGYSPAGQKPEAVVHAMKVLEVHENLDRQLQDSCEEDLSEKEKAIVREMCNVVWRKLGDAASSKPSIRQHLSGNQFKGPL
# UniProt P27701: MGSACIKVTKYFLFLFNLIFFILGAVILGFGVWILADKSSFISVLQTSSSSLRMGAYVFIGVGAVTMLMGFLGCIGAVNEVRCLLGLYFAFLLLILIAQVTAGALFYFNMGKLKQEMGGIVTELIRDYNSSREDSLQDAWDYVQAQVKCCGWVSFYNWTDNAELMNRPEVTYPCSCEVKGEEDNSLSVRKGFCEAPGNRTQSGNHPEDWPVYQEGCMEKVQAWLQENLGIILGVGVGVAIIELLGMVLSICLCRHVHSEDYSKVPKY
# UniProt P42575: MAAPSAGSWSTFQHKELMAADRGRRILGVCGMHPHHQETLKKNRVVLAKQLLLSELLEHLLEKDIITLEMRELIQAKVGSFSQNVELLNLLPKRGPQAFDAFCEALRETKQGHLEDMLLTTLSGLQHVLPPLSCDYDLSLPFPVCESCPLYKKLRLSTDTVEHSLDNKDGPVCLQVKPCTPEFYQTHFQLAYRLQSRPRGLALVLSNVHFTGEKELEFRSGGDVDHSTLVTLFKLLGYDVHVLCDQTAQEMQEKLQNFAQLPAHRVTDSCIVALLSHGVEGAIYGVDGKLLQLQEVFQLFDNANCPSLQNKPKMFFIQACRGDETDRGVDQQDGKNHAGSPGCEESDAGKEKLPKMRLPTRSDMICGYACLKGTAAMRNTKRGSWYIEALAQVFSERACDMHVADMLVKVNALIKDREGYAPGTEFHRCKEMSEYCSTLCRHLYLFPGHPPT
# This is one part of the list.
# Assays:
# Test in all cases: log2 fold change, soluble protein after heating vs DMSO (PISA); higher = thermal stabilisation; K562 cells, 10 uM, 30 min; active = over 0.2 and 3.5 SD of the protein, either way, in both replicates (recomputed)
# [1] = compound: CC1=C(C=C(C=C1)NC(=O)C2=CC(=CC=C2)C(C)(C)C#N)NC3=CC4=C(C=C3)N=CN(C4=O)C
# Outline: (§1)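 Aliquots of K562 cells (2×10^6 cells/mL) treated with 10 μM compound for 30 min were heated for 3 min over 48°C-58°C. After pooling and extraction in PBS with 0.5% NP-40 at 4°C, soluble protein from a 21,000xg, 90 min spin was quantified by TMTpro 16plex LC-MS/MS with channel sums equalised. Thermal stability is expressed against control samples, from duplicates, as a log2 fold change.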
# [2] = compound: CC1=C(C=C(C=C1)NC(=O)C2=CC(=CC=C2)N(C)C)NC(=O)C3=CC=C(C=C3)O
# Outline: as §1
# [3] = compound: CC1=CC=C(C=C1)SC2=C3C=C(SC3=CN=C2)C(=O)N
# Outline: as §1
# [4] = compound: CC1=NC(=CC=C1)C2=C(N=C(N2)C(C)(C)C)C3=CC4=NC=CN=C4C=C3
# Outline: as §1
# Nexturastat A = compound: CCCCN(Cc1ccc(C(=O)NO)cc1)C(=O)Nc1ccccc1 [Nexturastat A]
# Outline: as §1
# vemurafenib = compound: CCCS(=O)(=O)Nc1ccc(F)c(C(=O)c2c[nH]c3ncc(-c4ccc(Cl)cc4)cc23)c1F [vemurafenib]
# Outline: as §1
# [5] = compound: CCCS(=O)(=O)Nc1ccc(F)c(C(=O)c2c[nH]c3ncc(Cl)cc23)c1F
# Outline: as §1
# [6] = compound: CCCc1cc(C)[nH]c(=O)c1CNC(=O)c1cc(-c2ccnc(N3CCN(C)CC3)c2)cc2c1cnn2C(C)C
# Outline: as §1
# givinostat = compound: CCN(CC)Cc1ccc2cc(COC(=O)Nc3ccc(C(=O)NO)cc3)ccc2c1 [givinostat]
# Outline: as §1
# barasertib = compound: CCN(CCCOc1ccc2c(Nc3cc(CC(=O)Nc4cccc(F)c4)[nH]n3)ncnc2c1)CCOP(=O)(O)O [barasertib]
# Outline: as §1
Target,log2 fold change [1],log2 fold change [2],log2 fold change [3],log2 fold change [4],log2 fold change (Nexturastat A),log2 fold change (vemurafenib),log2 fold change [5],log2 fold change [6],log2 fold change (givinostat),log2 fold change (barasertib)
CBL (UniProt P22681),inactive: 0.038,inactive: 0.015,inactive: 0.005,inactive: 0.019,inactive: -0.038,inactive: 0.002,inactive: 0.018,inactive: 0.021,inactive: -0.015,inactive: 0.018
CD80 (UniProt P33681),inactive: 0.104,inactive: -0.104,inactive: -0.009,–,–,–,inactive: 0.024,inactive: -0.111,inactive: -0.168,–
CDC34 (UniProt P49427),inactive: 0.042,inactive: 0.018,inactive: 0.032,inactive: -0.096,inactive: 0.096,inactive: 0.047,inactive: 0,inactive: 0.102,inactive: 0.359,inactive: 0.094
CCDC57 (UniProt Q2TAC2),inactive: 0.004,inactive: 0.02,inactive: 0.032,inactive: -0.01,inactive: -0.049,inactive: 0,inactive: 0.013,inactive: -0.047,inactive: 0.027,inactive: 0.015
CDC37 (UniProt Q16543),inactive: 0.022,inactive: 0.014,inactive: -0.049,inactive: 0.023,inactive: -0.068,inactive: 0.03,inactive: -0.029,inactive: 0.006,inactive: -0.03,inactive: 0.004
CDC37 (UniProt K7EL68),inactive: -0.079,inactive: -0.122,inactive: 0.133,inactive: 0.009,inactive: -0.108,inactive: -0.274,inactive: 0.101,–,–,inactive: 0.059
CCDC88A (UniProt Q3V6T2),inactive: -0.274,inactive: -0.13,inactive: 0.016,inactive: 0.031,inactive: -0.027,inactive: 0.045,inactive: 0,inactive: -0.113,inactive: 0.132,inactive: 0.027
CD63 (UniProt P08962),inactive: -0.007,inactive: 0.056,inactive: 0.004,inactive: 0.009,inactive: -0.072,inactive: 0.064,inactive: -0.007,inactive: -0.125,inactive: 0.096,inactive: -0.025
CCNA2 (UniProt P20248),inactive: 0.027,inactive: -0.003,inactive: 0.014,inactive: -0.005,inactive: 0.002,inactive: 0.036,inactive: 0.052,inactive: -0.01,inactive: 0.011,inactive: 0.012
CBR4 (UniProt Q8N4T8),inactive: -0.007,inactive: 0.025,inactive: 0.026,inactive: -0.007,inactive: 0.03,inactive: -0.057,inactive: -0.022,inactive: -0.023,inactive: -0.021,inactive: -0.022
CCDC59 (UniProt Q9P031),inactive: -0.067,inactive: -0.017,inactive: -0.144,inactive: -0.213,active: 0.549,inactive: -0.037,inactive: 0.008,inactive: 0.113,inactive: 0.086,inactive: -0.013
CD3EAP isoform 2 (UniProt O15446),inactive: -0.015,inactive: 0.016,inactive: -0.054,inactive: -0.045,inactive: 0.186,inactive: -0.044,inactive: -0.015,inactive: 0.01,inactive: 0.01,inactive: -0.099
CCDC127 (UniProt Q96BQ5),inactive: 0.056,inactive: 0.176,inactive: -0.047,inactive: -0.017,inactive: -0.05,inactive: 0,inactive: -0.018,inactive: -0.069,inactive: -0.013,inactive: 0.057
CCNY (UniProt Q8ND76),inactive: 0.262,inactive: -0.056,inactive: -0.008,inactive: 0.004,inactive: 0.006,inactive: -0.047,inactive: 0.037,–,inactive: -0.054,inactive: -0.139
CBARP (UniProt Q8N350),inactive: 0,inactive: 0.057,–,inactive: -0.188,inactive: 0.006,inactive: -0.134,–,–,–,inactive: 0.295
CD33 (UniProt P20138),inactive: 0.09,inactive: -0.095,inactive: -0.057,–,inactive: 0.138,inactive: -0.1,inactive: -0.05,–,inactive: 0.003,–

Target,log2 fold change [1],log2 fold change [2],log2 fold change [3],log2 fold change [4],log2 fold change (Nexturastat A),log2 fold change (vemurafenib),log2 fold change [5],log2 fold change [6],log2 fold change (givinostat),log2 fold change (barasertib)
CCNK isoform 4 (UniProt O75909),inactive: 0,inactive: 0.032,inactive: -0.032,inactive: -0.011,inactive: 0.024,inactive: -0.088,inactive: 0,inactive: 0.038,inactive: 0.014,inactive: -0.063
CBLB (UniProt Q13191),inactive: 0.068,inactive: -0.012,inactive: -0.013,inactive: -0.005,inactive: 0.082,inactive: -0.223,inactive: -0.048,inactive: -0.005,inactive: -0.17,inactive: -0.118
CCDC90B (UniProt Q9GZT6),inactive: -0.006,inactive: 0.011,inactive: 0.007,inactive: 0.006,inactive: -0.01,inactive: 0.117,inactive: -0.011,inactive: -0.01,inactive: -0.022,inactive: 0.028
CD164 (UniProt Q04900),inactive: 0.004,inactive: -0.105,–,–,inactive: 0.234,inactive: 0.174,–,inactive: -0.138,inactive: 0.068,inactive: -0.044
CD81 (UniProt P60033),inactive: 0.039,inactive: 0.112,inactive: 0.069,inactive: 0.054,inactive: -0.027,inactive: 0.156,inactive: -0.08,inactive: -0.06,inactive: 0.016,inactive: -0.008
CDC40 (UniProt O60508),inactive: 0.043,–,inactive: -0.07,inactive: -0.191,inactive: 0.339,inactive: -0.221,inactive: 0.01,inactive: 0.354,inactive: 0.018,inactive: -0.124
CBLL1 (UniProt Q75N03),inactive: -0.154,inactive: -0.013,inactive: -0.038,inactive: -0.037,–,inactive: -0.241,inactive: -0.086,–,inactive: 0.067,–
CCNT2 (UniProt O60583),inactive: 0.092,inactive: 0.042,inactive: -0.057,–,inactive: 0.348,–,inactive: -0.031,inactive: 0.211,–,–
CCDC43 (UniProt Q96MW1),inactive: -0.041,inactive: 0.022,inactive: 0.019,inactive: 0.035,inactive: -0.078,inactive: 0.004,inactive: 0.024,inactive: -0.033,inactive: 0.02,inactive: 0.03
CDC25B isoform 4 (UniProt P30305),inactive: 0.203,inactive: -0.022,inactive: -0.008,inactive: -0.004,inactive: -0.039,inactive: 0.054,inactive: -0.077,inactive: -0.352,inactive: 0.032,inactive: -0.044
CCDC47 (UniProt Q96A33),inactive: 0,inactive: 0.021,inactive: 0.045,inactive: 0.07,inactive: -0.039,inactive: 0.002,inactive: 0.048,inactive: 0.008,inactive: -0.02,inactive: 0.012
CCDC85C (UniProt A6NKD9),inactive: 0.105,inactive: -0.045,inactive: 0.113,inactive: 0.058,inactive: 0.065,inactive: -0.174,inactive: -0.468,inactive: -0.162,–,inactive: 0.036
CCNDBP1 (UniProt O95273),inactive: -0.104,inactive: 0.027,–,–,–,inactive: -0.074,–,inactive: -0.091,inactive: -0.046,inactive: 0.088
CD82 (UniProt P27701),inactive: 0.02,inactive: 0.098,–,–,inactive: 0.03,–,–,inactive: -0.155,inactive: 0.091,inactive: 0.021
CASP2 (UniProt P42575),inactive: 0.025,inactive: 0.001,inactive: 0.215,inactive: 0.056,inactive: 0.004,inactive: 0.026,inactive: 0.193,inactive: 0.086,inactive: 0.039,inactive: 0.026
CD69 (UniProt Q07108),inactive: -0.187,–,inactive: -0.061,inactive: 0.015,inactive: 0.104,inactive: -0.096,inactive: -0.106,inactive: -0.141,–,inactive: -0.035

# Reprinted at random: 2 records from the list.
Target,log2 fold change [1],log2 fold change [2],log2 fold change [3],log2 fold change [4],log2 fold change (Nexturastat A),log2 fold change (vemurafenib),log2 fold change [5],log2 fold change [6],log2 fold change (givinostat),log2 fold change (barasertib)
CDC25B isoform 4 (UniProt P30305),inactive: 0.203,inactive: -0.022,inactive: -0.008,inactive: -0.004,inactive: -0.039,inactive: 0.054,inactive: -0.077,inactive: -0.352,inactive: 0.032,inactive: -0.044
CCNT2 (UniProt O60583),inactive: 0.092,inactive: 0.042,inactive: -0.057,–,inactive: 0.348,–,inactive: -0.031,inactive: 0.211,–,–
